Measurements taken from the supplement of paper PMC4604168 (melanoma cell lines).
The other results are listed elsewhere or left out. Single values are uncertain, as repeats are few or missing.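 Cells were imaged in 1,536-well plates, and nuclei stained with an antibody against cleaved PARP were counted against all DNA-stained nuclei to give the apoptosis fraction. Screening doses were chosen to leave most cells alive, and resting and induced cleaved-PARP levels differ strongly between cell lines.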

Experiments:
Test in all cases: cleaved PARP positive nuclei fraction relative to DMSO control; melanoma cells; higher = more apoptosis
Conditions in all cases: library dose: low library concentration; 72 h
501Mel = system: 501Mel
A101D = system: A101D
A2058 = system: A2058
A375 = system: A375
C32 = system: C32
CBRC008 = system: CBRC008 (line from a melanoma biopsy)
CBRC014 = system: CBRC014 (line from a melanoma biopsy)
CBRC016 = system: CBRC016 (line from a melanoma biopsy)
CBRC017 = system: CBRC017 (line from a melanoma biopsy)

Compound	cleaved PARP positive nuclei fraction (501Mel) [%]	cleaved PARP positive nuclei fraction (A101D) [%]	cleaved PARP positive nuclei fraction (A2058) [%]	cleaved PARP positive nuclei fraction (A375) [%]	cleaved PARP positive nuclei fraction (C32) [%]	cleaved PARP positive nuclei fraction (CBRC008) [%]	cleaved PARP positive nuclei fraction (CBRC014) [%]	cleaved PARP positive nuclei fraction (CBRC016) [%]	cleaved PARP positive nuclei fraction (CBRC017) [%]
O=c1[nH]nc(Sc2ncc([N+](=O)[O-])s2)n1-c1ccc2c(c1)OCCO2 + Cc1ccc(Nc2nccc(N(C)c3ccc4c(C)n(C)nc4c3)n2)cc1S(N)(=O)=O [Pazopanib] (first compound 0.2 µM, partner dose 0.4 µM)	56.4	49.9	68.4	47	81.1	35.3	111	125	152
O=c1[nH]nc(Sc2ncc([N+](=O)[O-])s2)n1-c1ccc2c(c1)OCCO2 + C[C@]1(O)C[C@@H](c2nc(-c3ccc4ccc(-c5ccccc5)nc4c3)c3c(N)nccn32)C1 [OSI906] (first compound 0.2 µM, partner dose 0.4 µM)	108	84.4	60.4	485	85.6	86.8	99	154	128
Cc1cn(-c2cc(NC(=O)c3ccc(C)c(Nc4nccc(-c5cccnc5)n4)c3)cc(C(F)(F)F)c2)cn1 [nilotinib] + C=CCNC1=C2C[C@@H](C)C[C@H](OC)[C@H](O)[C@@H](C)/C=C(\C)[C@H](OC(N)=O)[C@@H](OC)/C=C\C=C(/C)C(=O)NC(=CC1=O)C2=O [Tanespimycin] (first compound 0.2 µM, partner dose 0.002 µM)	136	189	138	106	93.5	186	97.9	162	103
Cc1cc(Nc2cc(N3CCN(C)CC3)nc(Sc3ccc(NC(=O)C4CC4)cc3)n2)n[nH]1 [Tozasertib] + Cc1ccc(Nc2nccc(N(C)c3ccc4c(C)n(C)nc4c3)n2)cc1S(N)(=O)=O [Pazopanib] (first compound 0.006 µM, partner dose 0.4 µM)	66.4	43.4	110	222	75.1	113	110	157	109
O=C(Nc1cc(C(F)(F)F)cc(C(F)(F)F)c1)c1cc(Cl)ccc1O + NC1(c2ccc(-c3nc4ccn5c(=O)[nH]nc5c4cc3-c3ccccc3)cc2)CCC1 [MK2206] (first compound 0.016 µM, partner dose 0.4 µM)	214	60.8	75.9	199	523	110	97.1	31.2	113
Cc1cc(Nc2cc(N3CCN(C)CC3)nc(Sc3ccc(NC(=O)C4CC4)cc3)n2)n[nH]1 [Tozasertib] + NC1(c2ccc(-c3nc4ccn5c(=O)[nH]nc5c4cc3-c3ccccc3)cc2)CCC1 [MK2206] (first compound 0.006 µM, partner dose 0.4 µM)	109	47.6	80.1	169	74.6	97.3	86.4	65.1	90
CCCCCCCCCCCCCCCCCCOP(=O)([O-])OC1CC[N+](C)(C)CC1 [Perifosine] + O=C(/C=C/c1cccnc1)NCCCCC1CCN(C(=O)c2ccccc2)CC1 [FK866] (first compound 0.4 µM, partner dose 0.01 µM)	63	41.6	102	94.6	87.9	2620	76.8	350	1290
O=C(Nc1cc(C(F)(F)F)cc(C(F)(F)F)c1)c1cc(Cl)ccc1O + CS(=O)(=O)CCNCc1ccc(-c2ccc3ncnc(Nc4ccc(OCc5cccc(F)c5)c(Cl)c4)c3c2)o1 [lapatinib] (first compound 0.016 µM, partner dose 0.8 µM)	59.1	169	96.6	184	148	38.1	115	103	245
N#CC[C@H](C1CCCC1)n1cc(-c2ncnc3[nH]ccc23)cn1 [ruxolitinib] + Cn1c(Nc2ccc(C(F)(F)F)cc2)nc2cc(Oc3ccnc(-c4ncc(C(F)(F)F)[nH]4)c3)ccc21 [CHIR265] (first compound 1 µM, partner dose 0.08 µM)	101	554	131	291	84.6	126	109	167	100
COc1cc([C@@H]2c3cc4c(cc3[C@@H](O[C@@H]3O[C@@H]5CO[C@@H](C)O[C@H]5[C@H](O)[C@H]3O)[C@H]3COC(=O)[C@H]23)OCO4)cc(OC)c1O [etoposide] + CCCCCCCCc1ccc(CCC(N)(CO)CO)cc1 [fingolimod] (first compound 0.02 µM, partner dose 2 µM)	105	97.8	41.4	440	78.7	42.6	81.7	130	176
N#CC[C@H](C1CCCC1)n1cc(-c2ncnc3[nH]ccc23)cn1 [ruxolitinib] + Cn1c(=O)n(-c2ccc(C(C)(C)C#N)cc2)c2c3cc(-c4cnc5ccccc5c4)ccc3ncc21 [NVP-BEZ235] (first compound 1 µM, partner dose 0.004 µM)	66.3	132	129	29.3	80.3	80.5	84.5	53.7	150
Cc1cn(-c2cc(NC(=O)c3ccc(C)c(Nc4nccc(-c5cccnc5)n4)c3)cc(C(F)(F)F)c2)cn1 [nilotinib] + COCC[n+]1c2c(n(Cc3cnccn3)c1C)C(=O)c1ccccc1C2=O [YM155] (first compound 0.2 µM, partner dose 0.0004 µM)	95.9	107	98.3	116	289	404	102	196	102
O=C(Nc1cc(C(F)(F)F)cc(C(F)(F)F)c1)c1cc(Cl)ccc1O + Cc1ccc(Nc2nccc(N(C)c3ccc4c(C)n(C)nc4c3)n2)cc1S(N)(=O)=O [Pazopanib] (first compound 0.016 µM, partner dose 0.4 µM)	120	37.6	69.1	182	72.1	124	99.2	86.5	100
N#CC[C@H](C1CCCC1)n1cc(-c2ncnc3[nH]ccc23)cn1 [ruxolitinib] + CCCCCCCCCCCCCCCCCCOP(=O)([O-])OC1CC[N+](C)(C)CC1 [Perifosine] (first compound 1 µM, partner dose 0.4 µM)	68.9	74.6	168	77.2	65.2	67.8	112	75.2	125
Cc1cn(-c2cc(NC(=O)c3ccc(C)c(Nc4nccc(-c5cccnc5)n4)c3)cc(C(F)(F)F)c2)cn1 [nilotinib] + CC(C)C[C@H](NC(=O)[C@H](Cc1ccccc1)NC(=O)c1cnccn1)B(O)O [Bortezomib] (first compound 0.2 µM, partner dose 0.001 µM)	169	130	132	162	71	166	119	146	137
COc1cc([C@@H]2c3cc4c(cc3[C@@H](O[C@@H]3O[C@@H]5CO[C@@H](C)O[C@H]5[C@H](O)[C@H]3O)[C@H]3COC(=O)[C@H]23)OCO4)cc(OC)c1O [etoposide] + CC1(C)CCC(c2ccc(Cl)cc2)=C(CN2CCN(c3ccc(C(=O)NS(=O)(=O)c4ccc(N[C@H](CCN5CCOCC5)CSc5ccccc5)c(S(=O)(=O)C(F)(F)F)c4)cc3)CC2)C1 [ABT263] (first compound 0.02 µM, partner dose 0.4 µM)	131	89.2	84.5	283	162	320	519	195	263
COc1cc([C@@H]2c3cc4c(cc3[C@@H](O[C@@H]3O[C@@H]5CO[C@@H](C)O[C@H]5[C@H](O)[C@H]3O)[C@H]3COC(=O)[C@H]23)OCO4)cc(OC)c1O [etoposide] + C#Cc1cccc(Nc2ncnc3cc(OCCOC)c(OCCOC)cc23)c1 [erlotinib] (first compound 0.02 µM, partner dose 0.8 µM)	136	59.8	38.3	63.8	71.1	105	111	31	134
COc1cc([C@@H]2c3cc4c(cc3[C@@H](O[C@@H]3O[C@@H]5CO[C@@H](C)O[C@H]5[C@H](O)[C@H]3O)[C@H]3COC(=O)[C@H]23)OCO4)cc(OC)c1O [etoposide] + O=c1[nH]nc(Sc2ncc([N+](=O)[O-])s2)n1-c1ccc2c(c1)OCCO2 [BI78D3] (first compound 0.02 µM, partner dose 0.2 µM)	49.3	45.1	266	199	78.6	206	98.1	185	112

Individual results from the entries so far:
Entry of Cc1cn(-c2cc(NC(=O)c3ccc(C)c(Nc4nccc(-c5cccnc5)n4)c3)cc(C(F)(F)F)c2)cn1 [nilotinib] + CC(C)C[C@H](NC(=O)[C@H](Cc1ccccc1)NC(=O)c1cnccn1)B(O)O [Bortezomib] (first compound 0.2 µM, partner dose 0.001 µM) under cleaved PARP positive nuclei fraction (CBRC014) [%]: 119
Entry of O=C(Nc1cc(C(F)(F)F)cc(C(F)(F)F)c1)c1cc(Cl)ccc1O + CS(=O)(=O)CCNCc1ccc(-c2ccc3ncnc(Nc4ccc(OCc5cccc(F)c5)c(Cl)c4)c3c2)o1 [lapatinib] (first compound 0.016 µM, partner dose 0.8 µM) under cleaved PARP positive nuclei fraction (CBRC014) [%]: 115
